Reference: patent publication US12551532B2, “Long-acting amylin receptor agonists and uses thereof” (Eli Lilly and Company, priority 2021, dated 2026)
At least one structure is not confirmed: it was looked up by name or label, or the drawing left a doubt. Starred links: 1 amine or outer side, 2 acyl side, 3 side chain; linkers in the order of their positions; H or OH if unused. Positions of bridges follow the written chain, without caps; N, C: chain ends. Non-standard residues stand in square brackets, D forms with d. Residues, ends and D or L forms follow the SMILES beside them. Groups on a side chain read outwards from the residue. *: point of attachment. C20 diacid = O=C(O)CCCCCCCCCCCCCCCCCCC(=O)*; γGlu = O=C(O)[C@H](CCC(=O)[*:2])N[*:1]; αMeF = C[C@](N)(Cc1ccccc1)C(=O)O; NMeD = CN[C@@H](CC(=O)O)C(=O)O; Orn = NCCC[C@H](N)C(=O)O; CH2 = C([*:1])[*:2]

Assays:
[1] = Body weight and body composition in diet-induced obese rats, 2-week study; assay type: in vivo, Long Evan rats; conditions: DIO rats, at 2 weeks vs initial
Experimental: Male Long Evan rats from Envigo RMS (Indianapolis, IN) at 14 weeks of age are put on a high fat diet (40% of kcal from fat, TD.95217; Envigo RMS, Indianapolis, IN) until 35-45 weeks old. Animals are individually housed in a temperature-controlled facility (75.0° F.; 23.9° C.) with a 12-hour reverse light/dark cycle (lights OFF at 10 AM) and free access to food and water. Body weights are recorded and body composition (fat mass) is determined using Quantitative Nuclear Magnetic Resonance Analysis (ECHO MRI, 3-1 Composition Analyzer; Echo Medical Systems, Houston, TX), followed by randomization into experimental groups (n=5). Rats are administered subcutaneous injections of vehicle or peptide (1 mL/kg) every three days (day 1, 4, 7, 10, and 13). Daily body weights are recorded and changes at end of treatment (day 14) are calculated as percentages versus pre-treatment weights (day 1). Body composition is determined on day 14, and changes in fat mass and fat-free mass (body weight−fat mass) are calculated from pre-treatment values as gram changes.

[2] = Food intake and body weight in normal rats, single SC dose; assay type: in vivo, Sprague Dawley rats; conditions: for Δ Body Weight: 96 hours post dose vs initial weights; for Cumulative Food Intake Change vs Vehicle: 96 hours post dose vs vehicle
Experimental: Male Sprague Dawley rats from Envigo RMS (Indianapolis, IN) are maintained on a chow diet (2014; Teklad Global, Envigo RMS, Indianapolis, IN) and single housed in a temperature-controlled facility (72.0° F.; 22.2° C.) with a reversed 12:12-hour light cycle (10 AM OFF) and free access to food and water. At 10 weeks of age, non-fasted body weights and initial food weights are recorded, and animals are administered a single subcutaneous injection (SC) of vehicle or acylated peptide (1 mL/kg), followed by daily measurements of body weight and food intake for 4 days post dose. Area under the curve analysis (AUC) is calculated for both body weight and food intake versus vehicle.

[3] = 100 nmol/kg SC every three days

| SMILES | Δ Body Weight ([1]; 1 nmol/kg SC every three days) | Δ Fat Mass ([1]; 1 nmol/kg SC every three days) | Δ Fat-Free Mass ([1]; 1 nmol/kg SC every three days) | Δ Body Weight ([1]; 10 nmol/kg SC every three days) | Δ Fat Mass ([1]; 10 nmol/kg SC every three days) | Δ Fat-Free Mass ([1]; 10 nmol/kg SC every three days) | Δ Body Weight [1, 3] | Δ Fat Mass [1, 3] | Δ Fat-Free Mass [1, 3] | Δ Body Weight ([2]; 0.1 nmol/kg SC single dose) | Cumulative Food Intake Change vs Vehicle ([2]; 0.1 nmol/kg SC single dose) | Δ Body Weight ([2]; 0.3 nmol/kg SC single dose) | Cumulative Food Intake Change vs Vehicle ([2]; 0.3 nmol/kg SC single dose) | Δ Body Weight ([2]; 1 nmol/kg SC single dose) | Cumulative Food Intake Change vs Vehicle ([2]; 1 nmol/kg SC single dose) | Δ Body Weight ([2]; 3 nmol/kg SC single dose) | Cumulative Food Intake Change vs Vehicle ([2]; 3 nmol/kg SC single dose) | Δ Body Weight ([2]; 10 nmol/kg SC single dose) | Cumulative Food Intake Change vs Vehicle ([2]; 10 nmol/kg SC single dose) | Δ Body Weight ([2]; 30 nmol/kg SC single dose) | other results |
| --- | --- | --- | --- | --- | --- | --- | --- | --- | --- | --- | --- | --- | --- | --- | --- | --- | --- | --- | --- | --- | --- |
| CC(C)C[C@H](NC(=O)[C@H](CCCN)NC(=O)CNC(=O)[C@@H](NC(=O)[C@H](C)NC(=O)[C@@H]1CSCSC[C@H](NC(=O)CC[C@H](N)C(=O)O)C(=O)N[C@@H](CC(N)=O)C(=O)N[C@@H]([C@@H](C)O)C(=O)N[C@@H](C)C(=O)N[C@@H]([C@@H](C)O)C(=O)N1)[C@@H](C)O)C(=O)N[C@@H](C)C(=O)N[C@@H](CCC(=O)O)C(=O)N[C@@](C)(Cc1ccccc1)C(=O)N[C@@H](CC(C)C)C(=O)N[C@H](C(=O)N[C@@H](CCCNC(=N)N)C(=O)N[C@@H](CO)C(=O)N[C@@H](CO)C(=O)N[C@@H](CC(N)=O)C(=O)N(C)[C@@H](CC(=O)O)C(=O)N[C@@H](Cc1ccccc1)C(=O)NCC(=O)N1CCC[C@H]1C(=O)N[C@@H](CCCCNC(=O)CC[C@H](NC(=O)CC[C@H](NC(=O)CCCCCCCCCCCCCCCCCCC(=O)O)C(=O)O)C(=O)O)C(=O)N[C@@H](CC(C)C)C(=O)N1CCC[C@H]1C(=O)N1CCC[C@H]1C(=O)N[C@H](C(=O)N[C@@H](CCC(=O)O)C(=O)N[C@H](C(=O)NCC(=O)N[C@@H](CO)C(=O)N[C@@H](CC(N)=O)C(=O)N[C@H](C(=O)N[C@@H](Cc1ccc(O)cc1)C(N)=O)[C@@H](C)O)C(C)C)[C@@H](C)O)C(C)C [Compound IV, γE-CNTATCATG-Orn-LAE-αMeF-LVRSSN-NMeD-FGPKLPPTEVGSNTY-NH2] (γGlu-CNTATCATG[Orn]LAE[αMeF]LVRSSN[NMeD]FGPK([γGlu-γGlu-C20 diacid])LPPTEVGSNTY-NH2; linker 1-6 via CH2) | −4.5% | -31.0 g | -0.2 g | −8.5% | -53.5 g | -6.4 g | −8.9% | -52.9 g | -8.6 g | 1.4% | −1.1% | 1.8% | −2.0% | 0.8% | −5.6% | −2.0% | −20.5% | −5.2% | −46.8% | −9.2% | Cumulative Food Intake Change vs Vehicle ([2]; 30 nmol/kg SC single dose): −59.2%; Δ Body Weight ([2]; 100 nmol/kg SC single dose): −11.9%; Cumulative Food Intake Change vs Vehicle ([2]; 100 nmol/kg SC single dose): −68.1%; Δ Body Weight ([2]; 300 nmol/kg SC single dose): −14.2%; Cumulative Food Intake Change vs Vehicle ([2]; 300 nmol/kg SC single dose): −79.2%; Δ Body Weight ([2]; 1000 nmol/kg SC single dose): −16.4%; Cumulative Food Intake Change vs Vehicle ([2]; 1000 nmol/kg SC single dose): −82.9% |
| CC[C@H](C)[C@H](NC(=O)[C@@H]1CCCN1C(=O)CNC(=O)[C@H](Cc1ccccc1)NC(=O)[C@H](CC(=O)O)N(C)C(=O)[C@H](CC(N)=O)NC(=O)[C@H](CO)NC(=O)[C@H](CO)NC(=O)[C@H](CCCNC(=N)N)NC(=O)[C@@H](NC(=O)[C@H](CC(C)C)NC(=O)[C@](C)(Cc1ccccc1)NC(=O)[C@H](CCC(=O)O)NC(=O)[C@H](C)NC(=O)[C@H](CC(C)C)NC(=O)[C@H](CCCN)NC(=O)CNC(=O)[C@@H](NC(=O)[C@H](C)NC(=O)[C@@H]1CSCSC[C@H](NC(=O)[C@@H](N)CCCCNC(=O)CC[C@H](NC(=O)CC[C@H](NC(=O)CCCCCCCCCCCCCCCCCCC(=O)O)C(=O)O)C(=O)O)C(=O)N[C@@H](CCC(=O)O)C(=O)N[C@@H]([C@@H](C)O)C(=O)N[C@@H](C)C(=O)N[C@@H]([C@@H](C)O)C(=O)N1)[C@@H](C)O)C(C)C)C(=O)N[C@@H](CC(C)C)C(=O)N1CCC[C@H]1C(=O)N1CCC[C@H]1C(=O)N[C@H](C(=O)N[C@@H](CCC(=O)O)C(=O)N[C@H](C(=O)NCC(=O)N[C@@H](CO)C(=O)N[C@@H](CC(N)=O)C(=O)N[C@H](C(=O)N[C@@H](Cc1ccc(O)cc1)C(N)=O)[C@@H](C)O)C(C)C)[C@@H](C)O [Compound VI, KCETATCATG-Orn-LAE-αMeF-LVRSSN-NMeD-FGPILPPTEVGSNTY-NH2] (H-K([γGlu-γGlu-C20 diacid])CETATCATG[Orn]LAE[αMeF]LVRSSN[NMeD]FGPILPPTEVGSNTY-NH2; linker 2-7 via CH2) | −3.2% | -25.5 g | 1.9 g | −8.8% | -51.9 g | -9.1 g | −9.8% | -54.7 g | -15.2 g | 2.2% | 2.3% | 1.2% | −0.4% | 1.2% | −0.4% | −0.9% | −23.8% | −3.6% | −36.4% | −8.3% | Cumulative Food Intake Change vs Vehicle ([2]; 30 nmol/kg SC single dose): −58.9%; Δ Body Weight ([2]; 100 nmol/kg SC single dose): −12.7%; Cumulative Food Intake Change vs Vehicle ([2]; 100 nmol/kg SC single dose): −73.4%; Δ Body Weight ([2]; 300 nmol/kg SC single dose): −14.1%; Cumulative Food Intake Change vs Vehicle ([2]; 300 nmol/kg SC single dose): −76.9%; Δ Body Weight ([2]; 1000 nmol/kg SC single dose): −16.2%; Cumulative Food Intake Change vs Vehicle ([2]; 1000 nmol/kg SC single dose): −84.6% |
